This test deals with T1, ASCL1 (human (endogenous in NCI-H2107)) (UniProt P50553).
T1 sequence: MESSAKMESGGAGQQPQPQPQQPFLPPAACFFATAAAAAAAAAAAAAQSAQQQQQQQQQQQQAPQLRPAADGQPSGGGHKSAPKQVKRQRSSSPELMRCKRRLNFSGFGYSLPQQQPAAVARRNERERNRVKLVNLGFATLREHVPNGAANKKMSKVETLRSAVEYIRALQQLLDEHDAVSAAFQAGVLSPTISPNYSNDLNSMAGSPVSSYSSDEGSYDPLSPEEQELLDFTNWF
Kind of test: co-IP.

Sequences of proteins named here, by UniProt entry; tags and fusion partners are left off.
UniProt Q92786: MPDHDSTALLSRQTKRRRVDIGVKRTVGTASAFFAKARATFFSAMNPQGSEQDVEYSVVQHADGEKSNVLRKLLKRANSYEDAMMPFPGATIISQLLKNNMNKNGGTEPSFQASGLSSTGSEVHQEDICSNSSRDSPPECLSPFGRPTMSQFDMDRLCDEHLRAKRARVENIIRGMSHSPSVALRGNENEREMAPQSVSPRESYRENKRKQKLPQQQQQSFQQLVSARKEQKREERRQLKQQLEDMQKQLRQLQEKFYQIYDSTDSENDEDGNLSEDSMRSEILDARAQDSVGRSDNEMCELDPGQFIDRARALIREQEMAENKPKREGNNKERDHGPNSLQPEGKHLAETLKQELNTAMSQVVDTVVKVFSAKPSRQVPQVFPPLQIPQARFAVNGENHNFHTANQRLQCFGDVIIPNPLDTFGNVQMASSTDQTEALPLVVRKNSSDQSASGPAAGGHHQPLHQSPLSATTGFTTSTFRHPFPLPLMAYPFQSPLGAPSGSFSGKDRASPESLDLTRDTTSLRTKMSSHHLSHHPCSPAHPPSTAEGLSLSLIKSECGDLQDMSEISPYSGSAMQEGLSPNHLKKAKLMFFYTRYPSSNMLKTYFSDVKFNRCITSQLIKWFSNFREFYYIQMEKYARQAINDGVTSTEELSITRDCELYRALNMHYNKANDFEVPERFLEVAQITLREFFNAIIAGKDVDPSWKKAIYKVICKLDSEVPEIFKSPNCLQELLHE

Results are given in words; binding and its absence hold for the method and conditions named. Binding seen in cells or lysates may run through a third protein. Some binding calls cover weakened binding; strength is not graded here.

Here are results for two molecules from paper doi:10.1101/2020.08.13.249029.

With PROX1 (from UniProt Q92786 1-737), the binding result is listed as “binds”.

B1: NKX2-1 (protein, UniProt P43699 1-371)
chain: MSMSPKHTTPFSVSDILSPLEESYKKVGMEGGGLGAPLAAYRQGQAAPPTAAMQQHAVGHHGAVTAAYHMTAAGVPQLSHSAVGGYCNGNLGNMSELPPYQDTMRNSASGPGWYGANPDPRFPAISRFMGPASGMNMSGMGGLGSLGDVSKNMAPLPSAPRRKRRVLFSQAQVYELERRFKQQKYLSAPEREHLASMIHLTPTQVKIWFQNHRYKMKRQAKDKAAQQQLQQDSGGGGGGGGTGCPQQQQAQQQSPRRVAVPVLVKDGKPCQAGAPAPGAASLQGHAQQQAQHQAQAAQAAAAAISVGSGGAGLGAHPGHQPGSAGQSPDLAHHAASPAALQGQVSSLSHLNSSGSDYGTMSCSTLLYGRTW
In the case of B1, the binding entry is recorded as “binds”.
